SMILES strings stand for the structures. Counter-ions that a name gives are not always drawn. Some of the results follow. This is a noisy data set.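 Yeast growth was read as optical density at 600 nm. The two-hybrid strains grew without histidine, so growth needed the Pex3–Pex19 binding; a compound counted as trypanosome-selective if it cut growth of the trypanosome-pair strain by more than 65% and the human-pair strain by less than 65%.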

In this test the test system is T. brucei Pex3-Pex19 interaction (yeast two-hybrid). Briefly: growth inhibition of yeast two-hybrid strain reporting TbPex3-TbPex19 interaction, relative to DMSO; higher = stronger inhibition of T. brucei Pex3-Pex19 interaction / growth. Conditions: 100 µM; 24 h.
The compound `O=C(O)C1=CCNCC1` [Isoguvacine hydrochloride] returned a growth inhibition of 47.3%.

For `COc1ccc(S(=O)(=O)Nc2nc(-c3cccc([N+](=O)[O-])c3)cs2)cc1OC`, the growth inhibition came out at 57.5%.

In turn, `CC1CNCCN1S(=O)(=O)c1cccc2cnccc12` (stereo not drawn) came in with a growth inhibition of 70.2%.

The compound `CC(N)(Cc1ccc(O)cc1)C(=O)O` (racemic) [DL-alpha-Methyl-p-tyrosine] displayed a growth inhibition of 28%.

Regarding `Clc1ccccc1C(c1ccccc1)(c1ccccc1)n1ccnc1` [Clotrimazole], the growth inhibition came to 57.6%.

As to `CN(c1ccccc1CNc1nc(Nc2ccc3c(c2)CC(=O)N3)ncc1C(F)(F)F)S(C)(=O)=O`, the growth inhibition stood at 53.1%.

Regarding `N=C(N)SCCN` [2-(2-Aminoethyl)isothiourea dihydrobromide], the growth inhibition amounted to 49%.

Compound `N[C@@H](CS(=O)O)C(=O)O` [L-Cysteinesulfinic Acid] registered a growth inhibition of 63.5%.

The compound `Cc1cc(C(C)(C)C)c(O)c(C)c1CC1=NCCN1` [Oxymetazoline hydrochloride] showed a growth inhibition of 65.1%.

As for `NS(=O)(=O)C#Cc1ccccc1` [Pifithrin-mu], the growth inhibition came out at 68%.

Compound `CC(O)C(O)[C@H]1CNc2nc(N)[nH]c(=O)c2N1` (stereo partly drawn) [(6R)-5,6,7,8-Tetrahydro-L-biopterin hydrochloride] came in with a growth inhibition of 70.1%.

Consider `NS(=O)(=O)c1cc2c(cc1Cl)NC(C1CC3C=CC1C3)NS2(=O)=O` (stereo not drawn) [Cyclothiazide], for which the growth inhibition is 31.2%.

Turning to `CN1CCN(CCCN2c3ccccc3Sc3ccc(C(F)(F)F)cc32)CC1` [Trifluoperazine dihydrochloride], the growth inhibition was found to be 51%.

For `COc1ccccc1N1CCN(CCN2C(=O)CC3(CCCC3)CC2=O)CC1` [BMY 7378 dihydrochloride], the growth inhibition came to 61.6%.

Consider `O=C(c1ccc2c(c1)OCCO2)N1CCCCC1`, for which the growth inhibition came out at 52%.

The compound `CC(=O)c1ccc2c(c1)N(CCCN(C)C)c1ccccc1S2` [Acepromazine maleate] yielded a growth inhibition of 58.5%.

In the case of `COC(=O)Nc1nc2cc(C(=O)c3cccs3)ccc2[nH]1` [Nocodazole], the growth inhibition is 50.9%.

`CCCNCC(O)COc1ccccc1C(=O)CCc1ccccc1` (stereo not drawn) [Propafenone hydrochloride] had a growth inhibition of 63.6%.

Compound `CCOc1ncc(S(=O)(=O)N2CCN(CC)CC2)cc1-c1nc(=O)c2nn(CCOC)c(CC)c2[nH]1` [Gisadenafil besylate salt] came in with a growth inhibition of 23.7%.

In turn, `CC(N/C(=N\C#N)Nc1ccncc1)C(C)(C)C` (stereo not drawn) [Pinacidil] returned a growth inhibition of 58.5%.

`COc1cc2c(cc1O)CC[C@@H]1[C@@H]2CC[C@]2(C)[C@@H](O)CC[C@@H]12` [2-methoxyestradiol] gave a growth inhibition of 50.1%.

`CC(C)NCC(O)c1cc(O)cc(O)c1` (stereo not drawn) [Metaproterenol hemisulfate] gave a growth inhibition of 59.6%.

Take `CN(C)CCOC(=O)COc1ccc(Cl)cc1` [Centrophenoxine hydrochloride]: the growth inhibition was determined as 56.7%.

`O=c1oc(Cl)c(Cl)c2ccccc12` [3,4-Dichloroisocoumarin] registered a growth inhibition of 85.2%.

Turning to `CC(C)(C)NC[C@H](O)COc1nsnc1N1CCOCC1` [S(-)-Timolol maleate], the growth inhibition worked out at 65.6%.

Consider `O=C(c1ccc(OCCN2CCCCC2)cc1)c1c(-c2ccc(O)cc2)sc2cc(O)ccc12` [Raloxifene hydrochloride], for which the growth inhibition is 56.5%.

For the compound `Cc1cccc(C#Cc2ccccc2)n1` [6-Methyl-2-(phenylethynyl)pyridine hydrochloride], the growth inhibition was found to be 57.1%.

`CN1CC(=O)N=C1NC(=O)Nc1cccc(Cl)c1` [Fenobam] came in with a growth inhibition of 58.1%.

In the case of `NCCCS(=O)(=O)O` [3-Amino-1-propanesulfonic acid sodium], the growth inhibition was determined as 59%.

As to `N[C@H](C(=O)O)[C@H](Cc1ccccc1)C(=O)O` [L-Beta-threo-benzyl-aspartate], the growth inhibition was found to be 61.1%.

Regarding `COc1cccc2c1[C@@H]1CN(CCCCn3c(=O)[nH]c4c(sc5ncc(-c6ccccc6)nc54)c3=O)C[C@@H]1CO2` [Fiduxosin hydrochloride], the growth inhibition was found to be 77.9%.

On to `O=C1Cc2cc(CCN3CCN(c4nsc5ccccc45)CC3)c(Cl)cc2N1` [Ziprasidone hydrochloride monohydrate], for which the growth inhibition amounted to 61.7%.

`O=C(c1ccc(OCCCc2c[nH]cn2)cc1)C1CC1` [Ciproxifan hydrochloride] displayed a growth inhibition of 57%.

`c1ccc(CN2CCC3(CCCc4ccccc43)CC2)cc1` [L-687,384 hydrochloride] came in with a growth inhibition of 55.4%.

In turn, `COc1cccc(-c2cc(=O)c3ccccc3o2)c1N` yielded a growth inhibition of 45.5%.

For the compound `COc1ccc2c(c1)CC[C@@H]1[C@@H]2CC[C@]2(C)[C@@H](NCCCCCCN3C(=O)CCC3=O)CC[C@@H]12`, the growth inhibition came to 46.8%.

With `Nc1nc(Cl)nc2c1ncn2[C@@H]1O[C@H](CO)[C@@H](O)[C@H]1O` [2-Chloroadenosine], the growth inhibition stood at 55.4%.

As to `OC[C@H]1O[C@@H](n2cnc3c(NC4CCCC4)ncnc32)[C@H](O)[C@@H]1O` [N6-Cyclopentyladenosine], the growth inhibition worked out at 56.6%.
